Measured values reported in patent US12702649B2, “Method of treating cystic fibrosis airway disease” (priority 2016, dated 2026).

Details: sputum mixed 1:1 v/v with 200 mM NaHCO3, compared to equimolar NaCl, 5% CO2

Question: For `O=C([O-])O.[Na+]` [NaHCO3], which “CF sputum pH” value is on record?
Answer: increased sputum pH
